Results as given in the supplement of paper PMC10849652.
The other results are listed elsewhere or left out.

The chains behind the UniProt entries cited, without tags or fusion partners. Where a name states a change or a piece, a line headed by the entry shows the natural chain unless it says otherwise.
UniProt Q2M2I8: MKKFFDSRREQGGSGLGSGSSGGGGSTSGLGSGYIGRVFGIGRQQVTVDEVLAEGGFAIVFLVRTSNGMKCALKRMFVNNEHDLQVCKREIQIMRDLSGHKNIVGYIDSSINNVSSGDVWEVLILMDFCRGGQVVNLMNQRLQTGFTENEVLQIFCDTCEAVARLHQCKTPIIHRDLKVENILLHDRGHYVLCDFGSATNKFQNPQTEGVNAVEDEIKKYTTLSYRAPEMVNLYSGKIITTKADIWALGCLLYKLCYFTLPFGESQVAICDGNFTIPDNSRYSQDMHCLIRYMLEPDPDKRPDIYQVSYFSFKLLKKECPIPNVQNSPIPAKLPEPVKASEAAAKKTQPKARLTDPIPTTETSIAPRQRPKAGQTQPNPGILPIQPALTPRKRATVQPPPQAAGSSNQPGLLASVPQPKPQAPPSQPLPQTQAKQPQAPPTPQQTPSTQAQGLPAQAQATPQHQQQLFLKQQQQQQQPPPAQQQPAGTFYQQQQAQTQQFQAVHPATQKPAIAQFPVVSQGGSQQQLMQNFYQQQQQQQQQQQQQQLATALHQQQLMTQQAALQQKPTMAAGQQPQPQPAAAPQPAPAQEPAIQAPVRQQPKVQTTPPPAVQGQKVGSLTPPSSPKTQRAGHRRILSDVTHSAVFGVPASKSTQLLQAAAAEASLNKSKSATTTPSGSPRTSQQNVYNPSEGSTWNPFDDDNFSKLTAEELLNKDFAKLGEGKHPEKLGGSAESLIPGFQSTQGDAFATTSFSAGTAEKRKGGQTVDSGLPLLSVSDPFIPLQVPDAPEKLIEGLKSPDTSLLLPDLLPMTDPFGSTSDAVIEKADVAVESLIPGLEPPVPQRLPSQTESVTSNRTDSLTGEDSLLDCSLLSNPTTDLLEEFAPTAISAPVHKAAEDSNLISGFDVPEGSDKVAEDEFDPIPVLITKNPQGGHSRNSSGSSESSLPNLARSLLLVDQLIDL
UniProt P01023, whole entry, looked up: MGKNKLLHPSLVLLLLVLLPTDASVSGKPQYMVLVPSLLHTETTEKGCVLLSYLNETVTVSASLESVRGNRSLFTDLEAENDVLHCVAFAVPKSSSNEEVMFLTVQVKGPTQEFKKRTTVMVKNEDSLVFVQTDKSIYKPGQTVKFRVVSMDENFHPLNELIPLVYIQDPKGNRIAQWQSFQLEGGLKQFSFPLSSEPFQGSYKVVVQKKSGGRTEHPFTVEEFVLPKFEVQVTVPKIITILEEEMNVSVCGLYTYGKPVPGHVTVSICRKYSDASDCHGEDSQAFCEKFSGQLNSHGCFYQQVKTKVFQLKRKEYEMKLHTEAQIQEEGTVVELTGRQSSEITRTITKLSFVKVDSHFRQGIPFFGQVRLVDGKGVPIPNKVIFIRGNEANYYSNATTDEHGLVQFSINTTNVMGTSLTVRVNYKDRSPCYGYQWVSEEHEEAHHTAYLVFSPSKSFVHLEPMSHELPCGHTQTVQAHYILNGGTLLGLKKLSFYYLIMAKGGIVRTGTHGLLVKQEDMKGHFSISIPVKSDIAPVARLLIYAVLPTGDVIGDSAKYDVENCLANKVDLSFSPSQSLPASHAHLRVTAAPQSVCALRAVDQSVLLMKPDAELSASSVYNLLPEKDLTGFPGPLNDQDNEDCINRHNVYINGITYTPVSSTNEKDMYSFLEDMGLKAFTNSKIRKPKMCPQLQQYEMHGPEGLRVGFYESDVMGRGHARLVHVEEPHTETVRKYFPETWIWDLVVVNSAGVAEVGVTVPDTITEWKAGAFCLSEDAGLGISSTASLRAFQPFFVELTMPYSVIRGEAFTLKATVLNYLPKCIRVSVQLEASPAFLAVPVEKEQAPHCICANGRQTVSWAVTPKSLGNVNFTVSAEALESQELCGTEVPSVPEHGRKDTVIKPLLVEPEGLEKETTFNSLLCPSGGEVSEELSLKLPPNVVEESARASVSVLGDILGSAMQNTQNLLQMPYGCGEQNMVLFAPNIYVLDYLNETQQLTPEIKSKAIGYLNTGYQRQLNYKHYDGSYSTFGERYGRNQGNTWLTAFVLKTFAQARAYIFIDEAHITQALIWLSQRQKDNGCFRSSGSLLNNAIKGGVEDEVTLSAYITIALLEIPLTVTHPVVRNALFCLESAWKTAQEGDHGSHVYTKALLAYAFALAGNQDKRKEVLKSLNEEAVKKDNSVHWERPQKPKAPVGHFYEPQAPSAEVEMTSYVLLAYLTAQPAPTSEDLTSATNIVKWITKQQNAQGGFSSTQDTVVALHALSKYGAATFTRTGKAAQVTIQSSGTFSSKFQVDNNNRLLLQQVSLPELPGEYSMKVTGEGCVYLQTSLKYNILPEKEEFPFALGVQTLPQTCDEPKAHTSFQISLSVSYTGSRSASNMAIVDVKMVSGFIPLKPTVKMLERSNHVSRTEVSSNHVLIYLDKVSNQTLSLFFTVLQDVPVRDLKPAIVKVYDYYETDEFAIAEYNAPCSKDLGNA
UniProt P49588, whole entry, looked up: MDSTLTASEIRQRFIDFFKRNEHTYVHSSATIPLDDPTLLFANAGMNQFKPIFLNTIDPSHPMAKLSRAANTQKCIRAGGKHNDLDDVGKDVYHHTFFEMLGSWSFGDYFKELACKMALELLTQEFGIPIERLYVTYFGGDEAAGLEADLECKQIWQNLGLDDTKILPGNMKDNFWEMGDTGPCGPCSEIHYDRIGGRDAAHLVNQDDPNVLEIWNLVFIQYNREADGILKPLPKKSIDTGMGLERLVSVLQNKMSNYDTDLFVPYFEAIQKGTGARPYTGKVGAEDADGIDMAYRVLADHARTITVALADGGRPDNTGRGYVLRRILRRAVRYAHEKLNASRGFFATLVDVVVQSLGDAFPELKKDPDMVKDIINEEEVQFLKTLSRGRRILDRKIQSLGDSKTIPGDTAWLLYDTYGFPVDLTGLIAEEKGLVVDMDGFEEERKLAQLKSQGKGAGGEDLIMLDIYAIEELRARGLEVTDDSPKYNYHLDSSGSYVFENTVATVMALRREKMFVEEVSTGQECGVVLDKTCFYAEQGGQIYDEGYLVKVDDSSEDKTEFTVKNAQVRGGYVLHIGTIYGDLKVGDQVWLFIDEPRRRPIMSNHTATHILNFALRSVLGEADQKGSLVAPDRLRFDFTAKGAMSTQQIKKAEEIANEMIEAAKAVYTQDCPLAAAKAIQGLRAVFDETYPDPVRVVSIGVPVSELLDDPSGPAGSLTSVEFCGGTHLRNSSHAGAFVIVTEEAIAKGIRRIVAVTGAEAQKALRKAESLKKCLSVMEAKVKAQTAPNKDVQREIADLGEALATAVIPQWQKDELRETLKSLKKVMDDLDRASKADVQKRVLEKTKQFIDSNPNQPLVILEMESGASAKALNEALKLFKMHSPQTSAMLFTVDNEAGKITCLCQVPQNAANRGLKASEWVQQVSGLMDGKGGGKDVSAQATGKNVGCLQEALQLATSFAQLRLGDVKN
UniProt Q96IU4: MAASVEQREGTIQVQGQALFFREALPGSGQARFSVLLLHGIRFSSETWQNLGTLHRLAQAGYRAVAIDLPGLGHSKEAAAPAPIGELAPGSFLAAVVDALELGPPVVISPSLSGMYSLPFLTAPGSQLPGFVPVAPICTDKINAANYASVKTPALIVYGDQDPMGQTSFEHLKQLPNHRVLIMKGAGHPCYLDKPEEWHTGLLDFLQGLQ
UniProt O15439: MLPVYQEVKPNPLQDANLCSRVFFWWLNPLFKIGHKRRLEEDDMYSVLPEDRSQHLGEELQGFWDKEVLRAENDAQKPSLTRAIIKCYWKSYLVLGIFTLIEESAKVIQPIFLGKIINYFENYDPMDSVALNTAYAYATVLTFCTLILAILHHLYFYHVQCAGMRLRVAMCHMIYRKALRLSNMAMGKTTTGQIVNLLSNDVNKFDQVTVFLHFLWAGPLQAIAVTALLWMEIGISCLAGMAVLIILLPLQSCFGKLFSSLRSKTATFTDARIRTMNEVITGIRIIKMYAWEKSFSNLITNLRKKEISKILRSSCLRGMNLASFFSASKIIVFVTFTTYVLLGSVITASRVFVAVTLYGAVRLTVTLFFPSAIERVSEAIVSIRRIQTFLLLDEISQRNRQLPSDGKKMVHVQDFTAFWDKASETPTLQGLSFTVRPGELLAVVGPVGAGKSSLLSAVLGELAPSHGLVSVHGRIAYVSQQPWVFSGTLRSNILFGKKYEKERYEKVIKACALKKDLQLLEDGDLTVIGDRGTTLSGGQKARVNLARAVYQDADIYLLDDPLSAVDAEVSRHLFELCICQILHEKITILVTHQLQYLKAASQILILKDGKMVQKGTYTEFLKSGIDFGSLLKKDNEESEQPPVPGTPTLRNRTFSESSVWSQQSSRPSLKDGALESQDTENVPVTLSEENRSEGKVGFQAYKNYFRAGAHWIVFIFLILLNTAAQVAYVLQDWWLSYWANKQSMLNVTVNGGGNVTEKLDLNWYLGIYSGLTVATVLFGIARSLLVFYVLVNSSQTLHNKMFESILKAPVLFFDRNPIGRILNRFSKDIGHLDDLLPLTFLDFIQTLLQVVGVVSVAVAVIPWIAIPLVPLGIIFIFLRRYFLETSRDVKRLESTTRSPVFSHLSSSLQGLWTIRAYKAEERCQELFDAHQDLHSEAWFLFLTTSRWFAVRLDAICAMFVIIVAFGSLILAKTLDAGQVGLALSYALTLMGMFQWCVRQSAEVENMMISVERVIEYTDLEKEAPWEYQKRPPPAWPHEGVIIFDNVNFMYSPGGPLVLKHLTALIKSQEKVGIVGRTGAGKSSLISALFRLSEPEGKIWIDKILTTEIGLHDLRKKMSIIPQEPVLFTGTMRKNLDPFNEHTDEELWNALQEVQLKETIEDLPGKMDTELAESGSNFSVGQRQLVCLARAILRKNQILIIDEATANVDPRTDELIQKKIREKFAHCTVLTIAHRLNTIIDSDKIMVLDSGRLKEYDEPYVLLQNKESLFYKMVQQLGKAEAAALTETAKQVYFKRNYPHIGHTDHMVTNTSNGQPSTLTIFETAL
UniProt Q5JTZ9, whole entry, looked up: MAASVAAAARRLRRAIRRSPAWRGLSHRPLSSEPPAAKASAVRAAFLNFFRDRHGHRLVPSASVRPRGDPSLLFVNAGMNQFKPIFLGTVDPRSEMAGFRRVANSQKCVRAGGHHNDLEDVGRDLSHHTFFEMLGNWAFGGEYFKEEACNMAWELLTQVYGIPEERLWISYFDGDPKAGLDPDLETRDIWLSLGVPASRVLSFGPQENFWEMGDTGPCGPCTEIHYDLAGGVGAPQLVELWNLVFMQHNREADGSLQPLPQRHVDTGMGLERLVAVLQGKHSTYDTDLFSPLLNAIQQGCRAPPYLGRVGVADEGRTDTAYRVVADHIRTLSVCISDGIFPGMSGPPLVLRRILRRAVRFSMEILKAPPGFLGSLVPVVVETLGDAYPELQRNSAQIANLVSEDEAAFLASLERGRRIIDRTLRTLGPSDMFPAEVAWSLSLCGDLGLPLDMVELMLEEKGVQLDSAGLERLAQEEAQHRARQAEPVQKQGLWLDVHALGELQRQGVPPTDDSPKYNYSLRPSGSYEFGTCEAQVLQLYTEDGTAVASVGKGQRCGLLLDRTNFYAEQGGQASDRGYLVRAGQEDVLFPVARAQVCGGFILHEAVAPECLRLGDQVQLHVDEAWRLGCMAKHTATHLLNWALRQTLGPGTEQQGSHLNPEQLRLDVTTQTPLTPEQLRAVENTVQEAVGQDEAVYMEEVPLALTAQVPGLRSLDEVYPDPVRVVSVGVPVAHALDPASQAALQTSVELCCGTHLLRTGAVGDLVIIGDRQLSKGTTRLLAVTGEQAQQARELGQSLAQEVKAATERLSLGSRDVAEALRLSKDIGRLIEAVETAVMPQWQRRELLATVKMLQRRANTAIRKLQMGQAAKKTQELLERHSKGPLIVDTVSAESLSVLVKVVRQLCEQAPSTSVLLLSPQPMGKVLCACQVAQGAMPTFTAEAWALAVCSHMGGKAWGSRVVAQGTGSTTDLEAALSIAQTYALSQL
UniProt Q9UG63: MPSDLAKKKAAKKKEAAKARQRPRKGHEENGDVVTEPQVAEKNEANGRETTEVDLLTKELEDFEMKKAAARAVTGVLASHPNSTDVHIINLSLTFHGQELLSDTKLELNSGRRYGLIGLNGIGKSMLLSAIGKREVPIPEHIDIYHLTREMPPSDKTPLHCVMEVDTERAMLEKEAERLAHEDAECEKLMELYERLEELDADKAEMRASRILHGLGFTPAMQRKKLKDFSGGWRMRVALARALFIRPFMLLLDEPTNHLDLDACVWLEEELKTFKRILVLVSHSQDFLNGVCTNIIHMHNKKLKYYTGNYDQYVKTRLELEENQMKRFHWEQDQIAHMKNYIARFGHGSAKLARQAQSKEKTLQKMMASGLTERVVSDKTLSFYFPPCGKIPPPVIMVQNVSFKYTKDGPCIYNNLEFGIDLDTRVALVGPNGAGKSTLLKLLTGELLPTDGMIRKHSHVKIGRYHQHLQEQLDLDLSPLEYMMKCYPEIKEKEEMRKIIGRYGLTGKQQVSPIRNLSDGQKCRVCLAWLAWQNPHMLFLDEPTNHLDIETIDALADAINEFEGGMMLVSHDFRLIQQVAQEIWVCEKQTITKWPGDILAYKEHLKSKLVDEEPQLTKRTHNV

Key:
Assay in all cases: log2 fold change, soluble protein after heating vs DMSO (PISA); higher = thermal stabilisation; K562 lysate, 10 uM; active = over 0.2 and 3.5 SD of the protein, either way, in both replicates (recomputed)
erlotinib = compound: C#Cc1cccc(Nc2ncnc3cc(OCCOC)c(OCCOC)cc23)c1 [erlotinib]
How it was run: (§1)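 Log-two fold change in thermal stability relative to solvent controls is reported from duplicates. For each sample, crude K562 extract from dounce-homogenised pellets in PBS pH 7.4 with 1 mM MgCl2, at 1 mg/mL protein, was treated with 10 μM compound for 30 min. Aliquots heated for 3 min across 48°C-58°C were pooled, brought to 0.5% NP-40 at 4°C and cleared at 21,000xg for 90 min. The supernatant was quantified by TMTpro 16plex LC-MS/MS with channel sums equalised.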

[1] = compound: C/C(=N\NC(=O)C1=CC(=CC=C1)S(=O)(=O)N2CCOCC2)/C3=C(C=CC(=C3)Cl)O
How it was run: as §1

[2] = compound: C1=CC(=CC=C1C2=NC3=C(N2)C=C(C=C3)C(=O)N)OC4=CC=C(C=C4)Cl
How it was run: as §1

[3] = compound: C1=CC2=C(C=CC(=C2)/C=C\3/C(=O)NC(=NCC4=CC=CS4)S3)N=C1
How it was run: as §1

[4] = compound: C1=CC2=NC=CN=C2C=C1/C=C/3\C(=O)NC(=O)S3
How it was run: as §1

[5] = compound: C1=CC=C(C=C1)C2=NC(=C(N2)C3=CC=NC=C3)C4=CC(=C(C=C4)Cl)O
How it was run: as §1

[6] = compound: C1=CC=C2C(=C1)C3=NNC4=CC=CC(=C43)C2=O
How it was run: as §1

[7] = compound: C1CCN(C1)C(=O)NC2=CC=CC(=C2)NC3=NC=C(C(=N3)NCCC4=CN=CN4)Br
How it was run: as §1

[8] = compound: C1CN(CCC1(CC2=CC=C(C=C2)Cl)N)C3=NC=NC4=C3C=CN4
How it was run: as §1

IRAK-1-4 Inhibitor I = compound: C1COCCN1CCN2C3=CC=CC=C3N=C2NC(=O)C4=CC(=CC=C4)[N+](=O)[O-] [IRAK-1-4 Inhibitor I]
How it was run: as §1

ibrutinib = compound: C=CC(=O)N1CCC[C@@H](n2nc(-c3ccc(Oc4ccccc4)cc3)c3c(N)ncnc32)C1 [ibrutinib]
How it was run: as §1

[9] = compound: CC(=O)c1cnc2ccc(-c3cc(Cl)c(O)c(Cl)c3)nc2c1N[C@H]1CC[C@H](CN(C)C)CC1
How it was run: as §1

ralimetinib = compound: CC(C)(C)Cn1c(N)nc2ccc(-c3[nH]c(C(C)(C)C)nc3-c3ccc(F)cc3)nc21 [ralimetinib]
How it was run: as §1

[10] = compound: CC(C)(O)CC(=O)NCCn1ccc2ncnc(Nc3ccc(Oc4cccc(C(F)(F)F)c4)c(Cl)c3)c21
How it was run: as §1

[11] = compound: CC(C)C1=C2N=C(C=C(N2N=C1)NCC3=CC=CC=C3)NCCCCCCN
How it was run: as §1

[12] = compound: CC1=C(C(CC(=O)N1)C2=CC=C(C=C2)C(F)(F)F)C(=O)NC3=C(C=C4C(=C3)C=NN4)F
How it was run: as §1

[13] = compound: CC1=C(C2=C(C=C1)C(=O)C3=CC=CC=C3N2CCCN)C
How it was run: as §1

[14] = compound: CC1=C(C=C(C=C1)NC(=O)C2=CC(=CC=C2)C(C)(C)C#N)NC3=CC4=C(C=C3)N=CN(C4=O)C
How it was run: as §1

[15] = compound: CC1=C(C=C(C=C1)NC(=O)C2=CC(=CC=C2)N(C)C)NC(=O)C3=CC=C(C=C3)O
How it was run: as §1

[16] = compound: CC1=CC=C(C=C1)SC2=C3C=C(SC3=CN=C2)C(=O)N
How it was run: as §1

Measured: log2 fold change

AAK1 (UniProt Q2M2I8)
inactive: erlotinib 0.044 | [1] -0.081 | [2] -0.114 | [3] 0.27 | [4] 0.082 | [5] -0.002 | [6] 0.283 | [7] 0.12 | [8] -0.065 | IRAK-1-4 Inhibitor I 0.156 | ibrutinib -0.025 | [9] 0.426 | ralimetinib 0.009 | [10] -0.045 | [11] 0.023 | [12] -0.021 | [13] -0.011 | [14] -0.002 | [15] -0.026 | [16] 0.039

ABCB8 (UniProt Q9NUT2)
inactive: erlotinib -0.004 | [1] -0.042 | [2] -0.025 | [3] 0.021 | [4] 0.034 | [5] -0.021 | [6] 0.022 | [7] -0.06 | [8] 0.015 | IRAK-1-4 Inhibitor I 0.041 | ibrutinib 0.008 | [9] 0.014 | ralimetinib 0.02 | [10] -0.046 | [11] 0.042 | [12] 0.062 | [13] -0.05 | [14] -0.028 | [15] 0.014 | [16] -0.027

AASDHPPT (UniProt Q9NRN7)
inactive: erlotinib -0.007 | [1] -0.009 | [2] -0.018 | [3] 0.012 | [4] 0.028 | [5] 0.011 | [6] -0.004 | [7] 0.005 | [8] 0.026 | IRAK-1-4 Inhibitor I -0.012 | ibrutinib -0.006 | [9] -0.004 | ralimetinib 0.013 | [10] 0.001 | [11] -0.004 | [12] -0.021 | [13] 0.027 | [14] 0.014 | [15] -0.017 | [16] 0.01

ACIN1 (UniProt E7EQT4)
inactive: erlotinib 0.001 | [1] -0.16 | [2] 0 | [3] 0.05 | [4] -0.027 | [5] -0.057 | [6] -0.009 | [7] 0.008 | [8] -0.027 | IRAK-1-4 Inhibitor I 0.012 | ibrutinib 0.049 | [9] -0.033 | ralimetinib 0.123 | [10] -0.052 | [11] 0.028 | [12] -0.017 | [13] -0.052 | [14] 0.094 | [15] -0.03 | [16] -0.002

A2M (UniProt P01023)
inactive: erlotinib -0.016 | [1] 0.056 | [2] 0.009 | [3] 0.063 | [4] 0.016 | [5] 0.03 | [6] -0.064 | [7] 0.039 | [8] 0.005 | IRAK-1-4 Inhibitor I -0.009 | ibrutinib -0.003 | [9] -0.011 | ralimetinib -0.018 | [10] -0.066 | [11] 0.008 | [12] 0.043 | [13] -0.013 | [14] -0.026 | [15] 0.023 | [16] -0.022

AAK1, A0A096LP25
inactive: erlotinib -0.021 | [1] 0.004 | [2] -0.001 | [3] 0.328 | [4] 0.098 | [5] -0.006 | [6] 0.304 | [7] 0.356 | [8] -0.129 | IRAK-1-4 Inhibitor I 0.121 | ibrutinib -0.022 | [9] 0.385 | ralimetinib -0.031 | [10] -0.03 | [11] 0.065 | [12] -0.072 | [13] -0.056 | [14] -0.021 | [15] -0.001 | [16] 0.045

AARS (UniProt P49588)
inactive: erlotinib -0.005 | [1] 0.028 | [2] 0.003 | [3] -0.008 | [4] -0.011 | [5] -0.008 | [6] -0.003 | [7] 0.005 | [8] -0.013 | IRAK-1-4 Inhibitor I -0.011 | ibrutinib -0.001 | [9] 0.003 | ralimetinib -0.004 | [10] 0.021 | [11] -0.009 | [12] -0.022 | [13] 0.035 | [14] -0.013 | [15] 0.004 | [16] 0.017

ABHD12 isoform 2 (UniProt Q8N2K0)
inactive: erlotinib -0.027 | [1] -0.031 | [2] -0.062 | [3] 0.074 | [4] 0.037 | [5] -0.064 | [6] 0 | [7] -0.03 | [8] 0.048 | IRAK-1-4 Inhibitor I 0.014 | ibrutinib -0.039 | [9] -0.03 | ralimetinib 0.043 | [10] -0.014 | [11] 0.05 | [12] 0.052 | [13] 0.021 | [14] 0.022 | [15] -0.05 | [16] 0.033

ABRAXAS1 (UniProt Q6UWZ7)
inactive: erlotinib -0.022 | [1] -0.023 | [2] 0.028 | [3] 0.047 | [4] -0.087 | [5] 0.075 | [6] -0.041 | [7] -0.024 | [8] 0.128 | IRAK-1-4 Inhibitor I -0.081 | ibrutinib 0.006 | [9] -0.002 | ralimetinib 0.088 | [10] 0.012 | [11] -0.002 | [12] 0.02 | [13] 0.012 | [14] 0.031 | [15] 0.002 | [16] -0.009

ACBD3 (UniProt Q9H3P7)
inactive: erlotinib 0.008 | [1] -0.013 | [2] 0.031 | [3] -0.004 | [4] 0.006 | [5] 0.009 | [6] -0.036 | [7] -0.016 | [8] 0.028 | IRAK-1-4 Inhibitor I 0.003 | ibrutinib -0.005 | [9] -0.007 | ralimetinib 0.009 | [10] -0.007 | [11] 0.016 | [12] 0.001 | [13] 0 | [14] 0.002 | [15] 0.018 | [16] -0.019

ABHD14B (UniProt Q96IU4)
inactive: erlotinib 0.043 | [1] 0.02 | [2] 0.022 | [3] -0.017 | [4] -0.001 | [5] 0.01 | [6] -0.015 | [7] -0.031 | [8] 0.053 | IRAK-1-4 Inhibitor I 0.002 | ibrutinib -0.037 | [9] -0.003 | ralimetinib 0.014 | [10] -0.037 | [11] 0.003 | [12] -0.032 | [13] -0.053 | [14] 0.015 | [15] -0.004 | [16] 0.016

ACAT2 (UniProt Q9BWD1)
inactive: erlotinib -0.023 | [1] -0.098 | [2] 0.031 | [3] -0.054 | [4] -0.006 | [5] 0.025 | [6] -0.007 | [7] -0.011 | [8] 0.015 | IRAK-1-4 Inhibitor I 0.028 | ibrutinib 0.087 | [9] 0.024 | ralimetinib -0.018 | [10] -0.007 | [11] 0.035 | [12] -0.022 | [13] -0.002 | [14] -0.006 | [15] -0.005 | [16] -0.019

ABCC4 (UniProt O15439)
inactive: erlotinib -0.022 | [1] -0.017 | [2] 0.028 | [3] 0 | [4] -0.103 | [5] -0.009 | [6] -0.046 | [7] -0.001 | [8] -0.002 | IRAK-1-4 Inhibitor I 0.017 | ibrutinib 0.012 | [9] -0.003 | ralimetinib 0.019 | [10] -0.027 | [11] -0.013 | [12] -0.075 | [13] -0.002 | [14] 0.031 | [15] -0.014 | [16] -0.023

Two successive entries already listed, for reference:
ACBD3 (UniProt Q9H3P7)
inactive: erlotinib 0.008 | [1] -0.013 | [2] 0.031 | [3] -0.004 | [4] 0.006 | [5] 0.009 | [6] -0.036 | [7] -0.016 | [8] 0.028 | IRAK-1-4 Inhibitor I 0.003 | ibrutinib -0.005 | [9] -0.007 | ralimetinib 0.009 | [10] -0.007 | [11] 0.016 | [12] 0.001 | [13] 0 | [14] 0.002 | [15] 0.018 | [16] -0.019

ABHD14B (UniProt Q96IU4)
inactive: erlotinib 0.043 | [1] 0.02 | [2] 0.022 | [3] -0.017 | [4] -0.001 | [5] 0.01 | [6] -0.015 | [7] -0.031 | [8] 0.053 | IRAK-1-4 Inhibitor I 0.002 | ibrutinib -0.037 | [9] -0.003 | ralimetinib 0.014 | [10] -0.037 | [11] 0.003 | [12] -0.032 | [13] -0.053 | [14] 0.015 | [15] -0.004 | [16] 0.016

The listing continues:

AARS2 (UniProt Q5JTZ9)
inactive: erlotinib 0.013 | [1] -0.047 | [2] -0.05 | [3] 0.004 | [4] -0.013 | [5] 0.005 | [6] -0.026 | [7] -0.008 | [8] 0.038 | IRAK-1-4 Inhibitor I -0.024 | ibrutinib 0 | [9] -0.052 | ralimetinib 0.025 | [10] -0.018 | [11] 0.029 | [12] 0.009 | [13] 0.02 | [14] -0.006 | [15] 0.035 | [16] -0.03

AATF (UniProt Q9NY61)
inactive: erlotinib -0.007 | [1] -0.035 | [2] -0.047 | [3] -0.036 | [4] 0.052 | [5] -0.019 | [6] -0.018 | [7] 0.08 | [8] -0.026 | IRAK-1-4 Inhibitor I -0.013 | ibrutinib 0.04 | [9] -0.045 | ralimetinib 0.027 | [10] -0.012 | [11] 0.019 | [12] -0.02 | [13] -0.027 | [14] -0.022 | [15] 0.017 | [16] -0.058

ABCF2 isoform 2 (UniProt Q9UG63)
inactive: erlotinib 0.046 | [1] -0.029 | [2] -0.049 | [3] -0.025 | [4] 0.01 | [5] 0.018 | [6] -0.042 | [7] 0.049 | [8] 0.016 | IRAK-1-4 Inhibitor I -0.047 | ibrutinib -0.012 | [9] 0.013 | ralimetinib 0.059 | [10] 0.003 | [11] 0.01 | [12] 0.007 | [13] -0.008 | [14] -0.013 | [15] 0.021 | [16] 0.012
